# Measured values: PubChem BioAssay AID1671190 (National Center for Advancing Translational Sciences (NCATS), 2021)
# Protein sequences, listed by entry. Tags and fused reporters are not part of them.
# UniProt P18054, whole entry, looked up: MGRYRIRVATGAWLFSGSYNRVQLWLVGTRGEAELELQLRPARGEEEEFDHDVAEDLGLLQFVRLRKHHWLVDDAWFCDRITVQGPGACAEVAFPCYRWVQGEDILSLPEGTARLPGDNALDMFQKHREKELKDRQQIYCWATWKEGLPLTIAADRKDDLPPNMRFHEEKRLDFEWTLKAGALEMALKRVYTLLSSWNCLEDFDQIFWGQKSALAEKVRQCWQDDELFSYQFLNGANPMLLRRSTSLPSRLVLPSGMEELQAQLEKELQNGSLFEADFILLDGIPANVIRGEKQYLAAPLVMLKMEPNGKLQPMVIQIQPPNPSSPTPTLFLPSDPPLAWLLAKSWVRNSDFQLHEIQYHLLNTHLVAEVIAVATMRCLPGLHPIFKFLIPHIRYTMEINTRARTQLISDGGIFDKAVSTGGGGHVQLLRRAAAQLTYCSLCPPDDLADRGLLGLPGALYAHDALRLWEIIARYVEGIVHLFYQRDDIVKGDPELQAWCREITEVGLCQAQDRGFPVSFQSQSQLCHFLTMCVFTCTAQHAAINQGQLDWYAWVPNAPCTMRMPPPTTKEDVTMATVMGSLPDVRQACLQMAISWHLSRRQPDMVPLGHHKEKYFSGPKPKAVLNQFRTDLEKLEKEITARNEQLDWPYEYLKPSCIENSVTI
# Values joined by “and” are separate entries in the source; they are usually repeats but may differ in a detail not shown here. Equal entries are not always repeated. About 6,100 (1.1%) of roughly 580,000 compounds were called active. Inconclusive means that the source gave no clear call. Such entries were picked first, then a sample of the others. Calls come from the whole dose curve; as a rule, active = well fitted inhibition curve with a large enough effect; inconclusive = small, poorly fitted or top-dose-only effect, or another doubt; inactive = no such curve, though single readings can be large or run the other way. Potencies beside an inconclusive call are fits to weak or partial responses and may not hold up.
# Molecular target: Polyunsaturated fatty acid lipoxygenase ALOX12 (Homo sapiens) (UniProt P18054)
# Assay: Primary qHTS assay for inhibitors of human arachidonate 12S-lipoxygenase (ALOX12): Round 2
# Details: purified 12hLO, xylenol orange hydroperoxide absorbance; activity change, negative = inhibition: at 108 µM (top of the series) unless noted
# Outline: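 Hydroperoxide product was detected by ferrous iron/xylenol orange as the 573 to 405 nm absorbance ratio. Arachidonic acid at 40 uM (final) was turned over for 30 min at room temperature by 150 nM human 12hLO, pH 7.0 Hepes buffer, after 15 min compound preincubation.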
# % is set by controls: 0 for no effect and ±100 for the full control effect; potency is the fitted concentration of half-maximal effect.
Structure (SMILES),Potency,"activity change, negative = inhibition"
Cc1ccsc1/C=C/C1=Cc2c(sc(N)c2C#N)C(C)(C)C1,active: 17.8 µM,
CCCCOc1ccc(/C=C/C(=O)c2ccc(OC)c(CSCC(=O)O)c2)cc1,"inconclusive: 44.7 µM [inhibitor, partial curve, poor fit]",
O=C(COC(=O)c1ccc2ccccc2n1)Nc1ccc(F)c(F)c1F,"inconclusive: 100 µM [inhibitor, partial curve, poor fit]",
CCOCCOC(=O)c1nc2ccccc2nc1Nc1ccc(Cl)cc1,active: 10 µM,
CCOc1ccc(C(CC(=O)O)NC(=O)c2cnc(N(C)C)nc2C)cc1 (stereo not drawn),"inconclusive: 70.8 µM [inhibitor, partial curve, poor fit]",
O=C(NCCCc1nc2ccc(Cl)cc2[nH]1)[C@H]1CCC[C@@H](O)C1,,inactive: 31.7%
O=C(CSc1ncccn1)NCC1Cc2cccc(-c3ncccn3)c2O1 (stereo not drawn),,inactive: 10.7%
CCOc1nc(SC(C(C)=O)C(=O)Nc2ccccc2)nc(N(C)C)n1 (stereo not drawn),,inactive: 86%
CCC1(N2CCN(S(=O)(=O)c3ccc(Cl)s3)CC2)CCN(C(=O)C(C)C)C1 (stereo not drawn),"inconclusive: 63.1 µM [inhibitor, partial curve, poor fit]",
CCCCOc1ccc(N2C(=O)C(C)CNC2=S)cc1 (stereo not drawn),"inconclusive: 44.7 µM [inhibitor, partial curve, poor fit]",
O=C(O)c1cc(-c2ccccc2F)on1,"inconclusive: 56.2 µM [inhibitor, partial curve, poor fit]",
Cc1nnsc1C(=O)N1CCCC(C)(C(=O)NS(=O)(=O)C2CC2)C1 (stereo not drawn),"inconclusive: 35.5 µM [inhibitor, partial curve, poor fit]",
Cc1ccc(NC(=O)COC(=O)CN2C(=O)c3ccccc3C2=O)cc1S(=O)(=O)N(C)C,"inconclusive: 112 µM [inhibitor, single point]",
COc1ccc(NC(=O)Nc2cccc3ccccc23)cc1S(N)(=O)=O,"inconclusive: 141 µM [inhibitor, partial curve, poor fit]",
COc1ccc(/C=N/n2c(-c3n[nH]c4c3CCC4)n[nH]c2=S)cc1OC,"inconclusive: 44.7 µM [inhibitor, partial curve, poor fit]",
Cc1cccc(CN2CCN(c3ncccn3)CC2)c1,"inconclusive: 1.12 µM [inhibitor, full curve, poor fit]",
Cc1ccc(N(CC(=O)NCC2CCCO2)S(=O)(=O)c2ccccc2)cc1 (stereo not drawn),,inactive: -0.891%
CC(C)(C)c1ccc(CC/C=N/O)cc1,active: 11.2 µM,
CC(C)(C)c1ccc(C(=O)Nc2ccc(NC(=O)CCC(=O)O)cc2O)cc1,"inconclusive: 89.1 µM [inhibitor, single point]",
COc1ccc(CNC(=O)c2cc(-c3ccc(Br)s3)nc3ccccc23)c(OC)c1,,inactive: 2.43%
O=C(Nc1cccc(-n2cccn2)c1)C1CCCN(Cc2cc3ccccc3[nH]2)C1 (stereo not drawn),,inactive: -18.3%
O=C(C1=C(O)C(=O)N(CC2CCCO2)C1c1ccccc1F)c1ccco1 (stereo not drawn),"inconclusive: 44.7 µM [inhibitor, partial curve, poor fit]",
Cc1ccc(Sc2ncccc2C(=O)NCc2cc([N+](=O)[O-])ccc2O)c(C)c1,,inactive: 220%

Structure (SMILES),Potency,"activity change, negative = inhibition"
Cc1ccc(C(=O)NC2CCCc3ccccc32)c(C)c1 (stereo not drawn),"inconclusive: 89.1 µM [inhibitor, single point]",
O=C(O)CNc1ccccc1,"inconclusive: 2.82 µM [inhibitor, full curve, poor fit]",
Cc1cc2oc(=O)cc(CN3CCCCCC3)c2cc1Cl,"inconclusive: 39.8 µM [inhibitor, single point]",
Cc1c(O)cccc1C(=O)N[C@@H](CSc1ccccc1)[C@H](O)CN1C[C@H]2CCCC[C@@H]2C[C@@H]1C(=O)NC(C)(C)C,"inconclusive: 8.63 µM [inhibitor, partial curve, poor fit]",
CC(c1cc2ccccc2[nH]1)N(C)C(=O)C1CCN(CC(N)=O)CC1 (stereo not drawn),"inconclusive: 31.6 µM [inhibitor, single point]",
NNc1ccncc1,"inconclusive: 17.8 µM [inhibitor, full curve]",
COc1ccc(C(=O)Nc2ccc(-c3nc4ccccc4o3)cc2)cc1,,inactive: -30.3%
CC(=O)Nc1cccc(NC(=O)c2nn(-c3ccc(F)c(F)c3)c3c2CCC3)c1,"inconclusive: 56.2 µM [inhibitor, partial curve, poor fit]",
CCOC(=O)c1cc(C#N)c(Nc2ccccc2OC)nc1C(F)(F)F,"inconclusive: 126 µM [inhibitor, partial curve, poor fit]",
CCc1c(C)sc(NC(=S)Nc2cccnc2)c1C(=O)OC,,inactive: -24.2%
COc1ccc(CNC(=O)Cn2ccn3nc(-c4ccc5c(c4)OCO5)cc3c2=O)cc1,"inconclusive: 2.82 µM [inhibitor, full curve, poor fit]",
O=C(CNC(=O)c1ccco1)NCC(=O)OC(C(=O)c1ccccc1)c1ccc(Cl)cc1 (stereo not drawn),"inconclusive: 35.5 µM [inhibitor, partial curve, poor fit]",
CC(C(=O)N1CCOCC1)n1ccc2cc(S(=O)(=O)N3CCCC3)ccc21 (stereo not drawn),"inconclusive: 8.91 µM [inhibitor, partial curve, poor fit]",
CCc1cccc2c1Sc1ccccc1CC2N1CCNCC1 (stereo not drawn),"inconclusive: 89.1 µM [inhibitor, single point]",
COc1ccccc1CNc1nc(-c2ccc(CN(C)C(C)=O)cc2)cs1,"inconclusive: 56.2 µM [inhibitor, partial curve, poor fit]",
CCc1ccc(-n2ccc(=O)c(C(=O)O)n2)cc1,"inconclusive: 35.5 µM [inhibitor, partial curve, poor fit]",
Cc1ccsc1CN1CCCCCNC(=O)CC1c1ccccc1 (stereo not drawn),,inactive: 4.94%
CC(C)N=c1scc(-c2cccs2)n1/N=C/c1ccc(O)c(O)c1O,active: 14.1 µM,
NC(=O)C1CCCN(CC(=O)N2CCN(c3ccccc3)CC2)C1 (stereo not drawn),"inconclusive: 31.6 µM [inhibitor, partial curve, poor fit]",
COc1ccc(Oc2nc(-c3ccccc3O)nc3ccccc23)cc1,,inactive: -0.165%
Cn1ncc(Br)c1NC(=O)CSc1ccc(Cl)cc1,"inconclusive: 100 µM [inhibitor, single point]",
Cc1ccc(C(=O)Nc2ccccn2)cc1S(=O)(=O)N1CCOCC1,,inactive: 1.77%
Nc1cccn2c(-c3ccc(Cl)c(Cl)c3)cnc12,"inconclusive: 50.1 µM [inhibitor, partial curve, poor fit]",

Structure (SMILES),Potency,"activity change, negative = inhibition"
CC(C)N(C(=O)CSc1nnc(N)s1)C1CCCCC1,,inactive: -2.18%
COc1cccc(NC(=O)c2ccc3c(c2)N(C)C2CCCCN2C3=O)c1 (stereo not drawn),"inconclusive: 79.4 µM [inhibitor, partial curve, poor fit]",
O=C(C1CCN(S(=O)(=O)c2ccccc2)CC1)N1CCc2ccccc21,"inconclusive: 28.2 µM [inhibitor, partial curve, poor fit]",
CCOC(=O)CSc1nc2ccc(NC(=O)c3ccc(Cl)cc3)cc2s1,,inactive: -3.7%
COc1ccc(O)c(C(=O)c2cnc3nc4ccccc4n3c2)c1,"inconclusive: 44.7 µM [inhibitor, partial curve, poor fit]",
COc1cccc(-c2nc(CS(=O)(=O)CC(=O)Nc3cccc(C(C)=O)c3)c(C)o2)c1,"inactive and inconclusive: 112 µM [inhibitor, partial curve, poor fit]",
O=C1c2c(nc(CNCc3cccc(Cl)c3)n2Cc2ccccc2)NCCN1Cc1ccccc1,,inactive: 41.1%
Cn1c(=O)[nH]c(=O)c2[nH]c(CN3CCN(c4cccc(Cl)c4)CC3)nc21,,inactive: 11.5%
Cc1cc(C)cc(NC(=O)CSc2c(C(C)C)cnc3c2c(=O)n(C)c(=O)n3C)c1,"inconclusive: 112 µM [inhibitor, partial curve, poor fit]",
COc1ccc([C@H]2C[C@@H](O)[C@@H](O)[C@@H]2NCc2cccc(C(F)(F)F)c2)cc1,"inconclusive: 31.6 µM [inhibitor, full curve, poor fit]",
Cc1[nH]nc(-c2ccc(O)cc2O)c1-c1ccc(Cl)cc1,"inconclusive: 79.4 µM [inhibitor, partial curve, poor fit]",
CCCSC1=C(C#N)C(c2cccs2)CC(=O)N1 (stereo not drawn),,inactive: 93.3%
Cc1csc(NC(=O)CSc2nnc(C)c(=O)n2N)n1,,inactive: -0.453%
COc1ccccc1/C=C/C1(C(=O)NC2CCCC2)CC(=O)N1c1ccccc1 (stereo not drawn),,inactive: 12.6%
NCCCn1c(C(=O)c2cc(Cl)c(N)c(Cl)c2)c2ccccc2[n+]1[O-],"inconclusive: 44.7 µM [inhibitor, partial curve, poor fit]",
N#CC1=C2SC=C(c3ccc(Br)cc3)N2CCCC1=O,"inconclusive: 50.1 µM [inhibitor, partial curve, poor fit]",
CC(=O)Nc1ccc2c(c1)C(C)(C)C(C)N2C (stereo not drawn),,inactive: -0.164%
Cc1ccccc1C(N)c1ccncc1 (stereo not drawn),"inconclusive: 7.94 µM [inhibitor, full curve]",
CCCc1c(Cc2cccc(F)c2)ncn1Cc1cccc(-c2ccccc2)c1,"inconclusive: 44.7 µM [inhibitor, partial curve, poor fit]",
Cc1c(CC(=O)NCCCC(=O)O)c(=O)oc2cc3c(cc12)CCC(C)(C)O3,"inconclusive: 44.7 µM [inhibitor, partial curve, poor fit]",
Cc1ccc(C)n1NC(=O)c1cccc(Cl)c1,"inconclusive: 10 µM [inhibitor, partial curve, poor fit]",
CS(=O)(=O)c1ccccc1-c1nc(-c2ccc(C(F)(F)F)cc2)no1,,inactive: -4.69%

# Another view of part of the listing above.
Structure (SMILES)	Potency	activity change, negative = inhibition
CCOCCOC(=O)c1nc2ccccc2nc1Nc1ccc(Cl)cc1	active: 10 µM	
O=C(C1CCN(S(=O)(=O)c2ccccc2)CC1)N1CCc2ccccc21	inconclusive: 28.2 µM [inhibitor, partial curve, poor fit]	
CCOC(=O)CSc1nc2ccc(NC(=O)c3ccc(Cl)cc3)cc2s1		inactive: -3.7%
